No constants are given. Whether binding was seen depends on the method and setting. Binding seen in cells or lysates may run through a third protein. Some results given as binding are weak or reduced against the parent protein; the word gives no strength. Each block holds one molecule with its values, some of them ahead of it.
Assays:
[1] = target: T1, USP1 (co-AP and co-IP assays) (human) (UniProt O94782); assay: pull-down + co-IP; co-affinity purification on sepharose beads from lysates of transfected HEK293/HeLa cells (50 mM Tris-HCl pH 7.5, 100 to 150 mM NaCl, 0.5% NP-40, 1 mM EDTA) and endogenous co-IP in NETN buffer with 100 to 350 mM NaCl; which was used for which pair is in Additional file 7
T1 sequence: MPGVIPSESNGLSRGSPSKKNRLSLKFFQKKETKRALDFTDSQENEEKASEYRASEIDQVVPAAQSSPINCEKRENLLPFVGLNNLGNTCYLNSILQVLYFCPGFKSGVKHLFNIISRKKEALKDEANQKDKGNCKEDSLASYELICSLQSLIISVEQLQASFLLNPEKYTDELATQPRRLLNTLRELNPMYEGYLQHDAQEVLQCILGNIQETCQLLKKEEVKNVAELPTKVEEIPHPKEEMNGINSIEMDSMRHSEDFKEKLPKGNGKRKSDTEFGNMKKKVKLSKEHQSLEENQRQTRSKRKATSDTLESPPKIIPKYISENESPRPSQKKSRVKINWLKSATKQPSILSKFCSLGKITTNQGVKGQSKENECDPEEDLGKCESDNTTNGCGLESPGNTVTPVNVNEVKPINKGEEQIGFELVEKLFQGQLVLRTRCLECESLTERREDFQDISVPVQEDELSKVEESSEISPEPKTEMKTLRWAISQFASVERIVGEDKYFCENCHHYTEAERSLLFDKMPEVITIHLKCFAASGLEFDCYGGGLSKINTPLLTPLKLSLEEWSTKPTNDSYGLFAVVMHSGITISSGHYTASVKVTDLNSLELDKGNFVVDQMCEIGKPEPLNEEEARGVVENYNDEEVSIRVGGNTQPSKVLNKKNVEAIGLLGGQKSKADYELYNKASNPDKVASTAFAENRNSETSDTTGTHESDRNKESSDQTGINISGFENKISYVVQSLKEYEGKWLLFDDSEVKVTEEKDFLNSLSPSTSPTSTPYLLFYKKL

Chains of the proteins cited; added tags and fusions are not shown.
UniProt O96017: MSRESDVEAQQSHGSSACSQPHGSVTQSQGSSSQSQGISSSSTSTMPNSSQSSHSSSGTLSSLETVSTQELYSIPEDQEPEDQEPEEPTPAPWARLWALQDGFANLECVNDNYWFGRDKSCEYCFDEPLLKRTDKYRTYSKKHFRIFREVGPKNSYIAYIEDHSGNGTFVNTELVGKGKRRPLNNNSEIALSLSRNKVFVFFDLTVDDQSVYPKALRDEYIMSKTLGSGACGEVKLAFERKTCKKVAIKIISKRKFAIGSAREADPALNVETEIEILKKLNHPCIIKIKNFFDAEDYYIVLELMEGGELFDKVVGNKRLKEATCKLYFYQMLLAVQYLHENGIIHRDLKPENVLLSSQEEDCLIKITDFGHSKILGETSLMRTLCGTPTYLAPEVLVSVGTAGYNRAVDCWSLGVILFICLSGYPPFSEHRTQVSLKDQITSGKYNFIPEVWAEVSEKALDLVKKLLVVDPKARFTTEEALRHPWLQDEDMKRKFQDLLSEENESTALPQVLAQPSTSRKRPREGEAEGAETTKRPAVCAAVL
UniProt Q15014: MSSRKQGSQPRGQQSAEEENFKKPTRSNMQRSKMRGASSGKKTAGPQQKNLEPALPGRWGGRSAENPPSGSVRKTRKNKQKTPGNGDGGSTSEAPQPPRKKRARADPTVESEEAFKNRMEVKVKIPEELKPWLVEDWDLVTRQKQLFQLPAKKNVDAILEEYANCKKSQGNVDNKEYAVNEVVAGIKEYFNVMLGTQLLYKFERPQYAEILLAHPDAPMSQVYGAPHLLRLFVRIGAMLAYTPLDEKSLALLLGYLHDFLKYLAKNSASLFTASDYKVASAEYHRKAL
UniProt P19838: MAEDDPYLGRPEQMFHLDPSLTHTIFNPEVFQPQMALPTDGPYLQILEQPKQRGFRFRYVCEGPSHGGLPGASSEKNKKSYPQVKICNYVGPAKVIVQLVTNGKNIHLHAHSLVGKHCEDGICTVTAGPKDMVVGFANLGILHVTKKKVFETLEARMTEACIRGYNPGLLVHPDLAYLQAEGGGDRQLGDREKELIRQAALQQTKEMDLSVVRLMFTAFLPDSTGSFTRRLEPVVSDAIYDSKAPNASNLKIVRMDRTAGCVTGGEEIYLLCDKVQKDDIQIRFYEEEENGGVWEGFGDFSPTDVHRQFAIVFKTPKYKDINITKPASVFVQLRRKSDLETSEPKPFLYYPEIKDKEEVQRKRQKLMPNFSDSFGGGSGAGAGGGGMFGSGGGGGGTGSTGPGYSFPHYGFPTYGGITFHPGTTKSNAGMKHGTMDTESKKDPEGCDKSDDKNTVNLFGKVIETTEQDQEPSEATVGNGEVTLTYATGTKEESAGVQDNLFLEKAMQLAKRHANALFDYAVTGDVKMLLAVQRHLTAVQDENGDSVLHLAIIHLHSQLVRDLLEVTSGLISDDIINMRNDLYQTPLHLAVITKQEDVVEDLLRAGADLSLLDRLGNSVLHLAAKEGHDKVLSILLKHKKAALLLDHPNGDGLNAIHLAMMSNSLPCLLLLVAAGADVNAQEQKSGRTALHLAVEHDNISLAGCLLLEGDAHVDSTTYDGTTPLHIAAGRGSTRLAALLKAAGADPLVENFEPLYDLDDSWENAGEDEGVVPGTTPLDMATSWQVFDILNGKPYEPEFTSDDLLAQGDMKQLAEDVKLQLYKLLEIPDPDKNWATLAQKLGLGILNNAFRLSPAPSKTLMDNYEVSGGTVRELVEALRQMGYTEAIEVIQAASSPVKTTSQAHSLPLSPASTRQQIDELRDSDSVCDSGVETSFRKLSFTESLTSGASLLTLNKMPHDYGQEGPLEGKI
UniProt P52294: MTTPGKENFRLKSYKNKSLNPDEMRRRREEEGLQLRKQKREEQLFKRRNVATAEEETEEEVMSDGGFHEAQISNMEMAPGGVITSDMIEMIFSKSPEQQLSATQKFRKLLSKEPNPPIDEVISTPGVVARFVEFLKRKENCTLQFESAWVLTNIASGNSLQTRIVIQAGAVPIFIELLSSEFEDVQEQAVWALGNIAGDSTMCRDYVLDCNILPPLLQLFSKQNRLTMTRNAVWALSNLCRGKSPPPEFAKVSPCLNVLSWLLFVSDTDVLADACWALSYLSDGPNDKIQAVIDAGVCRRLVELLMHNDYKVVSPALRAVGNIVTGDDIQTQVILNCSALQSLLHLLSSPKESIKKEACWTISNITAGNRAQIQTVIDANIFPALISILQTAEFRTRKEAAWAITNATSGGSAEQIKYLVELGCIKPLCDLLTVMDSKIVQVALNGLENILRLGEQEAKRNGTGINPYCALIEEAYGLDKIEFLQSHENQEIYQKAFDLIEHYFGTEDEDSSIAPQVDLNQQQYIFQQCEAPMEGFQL
UniProt Q9UBU8: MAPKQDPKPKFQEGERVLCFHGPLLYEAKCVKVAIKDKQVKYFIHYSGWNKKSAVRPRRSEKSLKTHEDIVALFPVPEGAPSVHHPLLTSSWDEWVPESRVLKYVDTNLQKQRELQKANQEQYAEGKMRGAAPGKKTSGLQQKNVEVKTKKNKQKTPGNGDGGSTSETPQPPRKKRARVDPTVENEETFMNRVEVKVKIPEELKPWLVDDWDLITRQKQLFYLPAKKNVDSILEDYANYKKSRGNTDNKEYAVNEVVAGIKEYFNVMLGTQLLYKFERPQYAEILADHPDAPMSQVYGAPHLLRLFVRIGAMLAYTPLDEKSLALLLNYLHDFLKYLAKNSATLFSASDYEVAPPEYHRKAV

[2] = target: T2, PALB2 (co-AP and co-IP assays) (human) (UniProt Q86YC2); assay: as above
T2 sequence: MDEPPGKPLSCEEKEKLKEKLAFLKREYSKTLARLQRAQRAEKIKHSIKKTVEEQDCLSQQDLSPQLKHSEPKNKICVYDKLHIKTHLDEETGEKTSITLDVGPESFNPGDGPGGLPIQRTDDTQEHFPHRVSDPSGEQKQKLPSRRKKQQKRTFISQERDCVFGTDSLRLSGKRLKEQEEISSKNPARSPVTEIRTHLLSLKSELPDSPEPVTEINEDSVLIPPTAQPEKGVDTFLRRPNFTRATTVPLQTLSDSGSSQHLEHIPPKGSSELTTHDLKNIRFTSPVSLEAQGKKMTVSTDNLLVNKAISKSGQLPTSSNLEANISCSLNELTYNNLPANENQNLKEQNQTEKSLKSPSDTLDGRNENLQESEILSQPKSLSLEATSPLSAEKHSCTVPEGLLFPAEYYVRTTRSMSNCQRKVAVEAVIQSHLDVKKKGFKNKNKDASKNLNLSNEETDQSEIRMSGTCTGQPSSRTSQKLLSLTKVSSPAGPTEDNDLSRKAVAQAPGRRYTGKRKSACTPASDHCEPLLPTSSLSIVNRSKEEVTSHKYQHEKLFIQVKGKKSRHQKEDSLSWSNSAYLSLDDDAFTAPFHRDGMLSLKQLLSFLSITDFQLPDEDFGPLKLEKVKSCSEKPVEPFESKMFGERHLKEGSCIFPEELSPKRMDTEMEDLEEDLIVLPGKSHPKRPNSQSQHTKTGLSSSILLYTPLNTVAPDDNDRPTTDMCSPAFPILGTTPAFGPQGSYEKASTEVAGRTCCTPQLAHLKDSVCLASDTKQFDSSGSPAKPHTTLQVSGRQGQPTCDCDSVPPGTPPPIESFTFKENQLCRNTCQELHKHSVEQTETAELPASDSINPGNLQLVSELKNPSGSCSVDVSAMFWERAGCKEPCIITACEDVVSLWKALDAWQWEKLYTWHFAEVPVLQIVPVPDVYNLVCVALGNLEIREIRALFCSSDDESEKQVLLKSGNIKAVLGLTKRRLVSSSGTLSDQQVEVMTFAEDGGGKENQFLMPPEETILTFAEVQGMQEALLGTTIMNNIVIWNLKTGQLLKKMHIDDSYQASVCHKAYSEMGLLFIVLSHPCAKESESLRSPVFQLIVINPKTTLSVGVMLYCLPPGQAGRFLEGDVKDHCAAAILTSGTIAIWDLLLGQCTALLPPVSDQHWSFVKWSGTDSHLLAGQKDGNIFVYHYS

[3] = target: T2, PALB2 (co-AP and co-IP assays) (human); assay: pull-down; co-affinity purification on sepharose beads from lysates of transfected HEK293/HeLa cells (50 mM Tris-HCl pH 7.5, 100 to 150 mM NaCl, 0.5% NP-40, 1 mM EDTA), 1 hour at 4°C; MRG15 and MRGX and their deletion mutants with PALB2 (Additional file 8)
[4] = target: CHEK2 (co-AP and co-IP assays) (human) (UniProt O96017); assay: pull-down + co-IP; co-affinity purification on sepharose beads from lysates of transfected HEK293/HeLa cells (50 mM Tris-HCl pH 7.5, 100 to 150 mM NaCl, 0.5% NP-40, 1 mM EDTA) and endogenous co-IP in NETN buffer with 100 to 350 mM NaCl; which was used for which pair is in Additional file 7
[5] = target: T3, TOP3A (co-AP and co-IP assays) (human) (UniProt Q13472); assay: as above
T3 sequence: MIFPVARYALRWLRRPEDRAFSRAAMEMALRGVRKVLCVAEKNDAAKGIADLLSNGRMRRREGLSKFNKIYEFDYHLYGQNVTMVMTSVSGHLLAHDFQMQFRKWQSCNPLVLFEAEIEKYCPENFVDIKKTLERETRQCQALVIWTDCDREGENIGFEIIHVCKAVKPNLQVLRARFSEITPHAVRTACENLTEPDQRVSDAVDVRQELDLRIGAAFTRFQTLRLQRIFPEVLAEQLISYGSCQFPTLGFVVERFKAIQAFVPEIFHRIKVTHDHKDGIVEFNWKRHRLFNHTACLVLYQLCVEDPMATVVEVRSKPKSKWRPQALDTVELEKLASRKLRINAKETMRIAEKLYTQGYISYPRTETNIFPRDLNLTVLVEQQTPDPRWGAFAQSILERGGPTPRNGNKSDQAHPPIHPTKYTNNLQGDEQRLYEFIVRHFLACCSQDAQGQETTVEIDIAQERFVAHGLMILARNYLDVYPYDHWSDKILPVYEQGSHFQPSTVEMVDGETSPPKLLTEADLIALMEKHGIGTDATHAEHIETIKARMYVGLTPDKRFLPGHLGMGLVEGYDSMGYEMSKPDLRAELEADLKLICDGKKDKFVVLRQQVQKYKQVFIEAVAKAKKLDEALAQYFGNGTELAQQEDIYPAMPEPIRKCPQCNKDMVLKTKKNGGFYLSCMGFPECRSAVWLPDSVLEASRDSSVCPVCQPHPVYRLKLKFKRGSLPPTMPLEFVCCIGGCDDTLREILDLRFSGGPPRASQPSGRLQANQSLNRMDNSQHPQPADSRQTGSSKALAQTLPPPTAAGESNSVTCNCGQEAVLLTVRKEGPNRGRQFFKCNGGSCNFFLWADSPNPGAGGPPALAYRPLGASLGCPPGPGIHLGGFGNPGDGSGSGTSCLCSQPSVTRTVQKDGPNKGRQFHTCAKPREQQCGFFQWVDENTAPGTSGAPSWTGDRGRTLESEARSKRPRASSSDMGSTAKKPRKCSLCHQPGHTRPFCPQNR

binding [3]: binds
Molecule: MRGX (from UniProt Q15014 1-288)

binding [4]: binds
Molecule: NFKB1 (co-AP and co-IP assays) (from UniProt P19838 1-968)

The next lines start with the molecule.

Molecule: KPNA1 (co-AP and co-IP assays) (from UniProt P52294 1-538)
binding [1]: binds

Molecule: MRG15 (co-AP and co-IP assays) (from UniProt Q9UBU8 1-362)
binding [2]: binds

B1: TSNAX (co-AP and co-IP assays) (protein, UniProt Q99598 1-290)
chain: MSNKEGSGGFRKRKHDNFPHNQRREGKDVNSSSPVMLAFKSFQQELDARHDKYERLVKLSRDITVESKRTIFLLHRITSAPDMEDILTESEIKLDGVRQKIFQVAQELSGEDMHQFHRAITTGLQEYVEAVSFQHFIKTRSLISMDEINKQLIFTTEDNGKENKTPSSDAQDKQFGTWRLRVTPVDYLLGVADLTGELMRMCINSVGNGDIDTPFEVSQFLRQVYDGFSFIGNTGPYEVSKKLYTLKQSLAKVENACYALKVRGSEIPKHMLADVFSVKTEMIDQEEGIS
binding [5]: binds
